This note sets out measurements from article PMC3107199.

Chains of the proteins cited; added tags and fusions are not shown.
UniProt P19109: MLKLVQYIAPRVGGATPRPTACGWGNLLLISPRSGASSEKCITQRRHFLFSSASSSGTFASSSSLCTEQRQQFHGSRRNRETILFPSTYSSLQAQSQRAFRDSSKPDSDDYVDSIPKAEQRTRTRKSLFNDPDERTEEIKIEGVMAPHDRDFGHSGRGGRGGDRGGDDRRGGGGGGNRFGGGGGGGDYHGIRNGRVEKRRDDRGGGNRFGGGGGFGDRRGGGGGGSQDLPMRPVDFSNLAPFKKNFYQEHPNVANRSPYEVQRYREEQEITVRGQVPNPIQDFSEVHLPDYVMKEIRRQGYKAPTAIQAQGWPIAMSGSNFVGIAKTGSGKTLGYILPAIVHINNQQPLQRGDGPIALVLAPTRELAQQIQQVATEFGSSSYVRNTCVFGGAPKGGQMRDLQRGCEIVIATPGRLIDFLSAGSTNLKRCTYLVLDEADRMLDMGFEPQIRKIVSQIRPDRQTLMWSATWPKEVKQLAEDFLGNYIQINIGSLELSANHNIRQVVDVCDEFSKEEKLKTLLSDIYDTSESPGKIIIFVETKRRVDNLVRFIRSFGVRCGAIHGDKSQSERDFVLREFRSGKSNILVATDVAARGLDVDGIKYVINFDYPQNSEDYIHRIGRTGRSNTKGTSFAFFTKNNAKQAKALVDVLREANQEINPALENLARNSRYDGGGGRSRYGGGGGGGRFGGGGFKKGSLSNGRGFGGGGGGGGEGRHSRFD

These are yes or no findings as the source states them, for the method shown. In cells and extracts the contact can be indirect. Some entries that bind do so weakly or less than the wild type.

The experiment addresses recombinant GST-Rm62 (Drosophila) (UniProt P19109). Kind of experiment: pull-down; recombinant GST-Rm62 or GST incubated overnight with adult fly head lysate; Western blot for Pur α; samples treated or untreated with RNase; only the target purified.

B1: endogenous Pur α (protein, UniProt Q95RR6 1-274)
chain: MSDLGSGDDGISGSKYNVANMEGSSSRNDFDSSAKGGSGVEQELATKMLQIQSKRFYLDVKQNRRGRFIKVAEIGADGRRSQIYLALSTAAEFRDHLSSFSDYYASLGPPNTDNLPEDGKLKSEMMIKDYRRYYLDLKENARGRFLRVSQTITRGGPRSQIALPAQGMIEFRDALTDLLEEFGANDGGFKGDLPEERHMKVDNKNFYFDIGQNNRGVYMRISEVKNNFRTSITIPEKCWIRFRDIFNDYCEKMKKSSDSITAEINLPTSSNSLK
With B1, the binding entry is listed as “binds”.
